# The supplement of paper PMC8728848
# Some of the results follow.
# B1: SUN4 (Saccharomyces cerevisiae), P53616 (protein)
# chain: MGSSHHHHHHSSGLVPRGSHNGSIYGDLADFSGPYEKFEDGTIPCGQFPSGQGVIPISWLDEGGWSGVENTDTSTGGSCKEGSYCSYACQPGMSKTQWPSDQPSDGRSIGGLLCKDGYLYRSNTDTDYLCEWGVDAAYVVSELSNDVAICRTDYPGTENMVIPTYVQAGDSLPLTVVDQDTYYTWQGLKTSAAYYVNNAGISVEDACVWGSSSSGVGNWAPLNFGAGSSDGVAYLSLIPNPNNGNALNFNVKIVAADDSSTVNGECIYENGSFSGGSDGCTVSVTAGKAKFVLYN
# Experiments:
# Experiment in all cases: glycan array binding signal (z-score within array); higher = stronger binding
# Settings in all cases: glycan notation: IUPAC condensed, linker removed; mutation: Q318A
# Neu5Ac(a2-3)Gal = molecular target: Neu5Ac(a2-3)Gal
# How it was run: (§1)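 Glycan array binding is given as a within-array Z-score, which can be read as non-binding when negative. The arrays, 3228 of them, came from the Consortium for Functional Glycomics database and were retained only where the protein sequence was available. Z-scores were averaged across arrays of the same protein sequence at different concentrations or buffers and across linkers.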
# [1] = molecular target: Neu5Ac(a2-3)Gal(b1-3)GalNAc
# How it was run: as §1
# [2] = molecular target: Neu5Ac(a2-3)Gal(b1-3)GalNAc(b1-3)Gal(a1-4)Gal(b1-4)Glc
# How it was run: as §1
# [3] = molecular target: Neu5Ac(a2-3)Gal(b1-3)GalNAc(b1-4)Gal(b1-4)Glc
# How it was run: as §1
# [4] = molecular target: Neu5Ac(a2-3)Gal(b1-3)GalNAc(b1-4)[Neu5Ac(a2-3)]Gal(b1-4)Glc
# How it was run: as §1
# [5] = molecular target: Neu5Ac(a2-3)Gal(b1-3)GalNAc(b1-4)[Neu5Ac(a2-8)Neu5Ac(a2-3)]Gal(b1-4)Glc
# How it was run: as §1
# [6] = molecular target: Neu5Ac(a2-3)Gal(b1-3)GalNAc6S
# How it was run: as §1
# [7] = molecular target: Neu5Ac(a2-3)Gal(b1-3)GlcNAc
# How it was run: as §1
# [8] = molecular target: Neu5Ac(a2-3)Gal(b1-3)GlcNAc(b1-2)Man
# How it was run: as §1
# [9] = molecular target: Neu5Ac(a2-3)Gal(b1-3)GlcNAc(b1-2)Man(a1-3)[GlcNAc(b1-4)][Neu5Ac(a2-3)Gal(b1-3)GlcNAc(b1-2)Man(a1-6)]Man(b1-4)GlcNAc(b1-4)GlcNAc
# How it was run: as §1
# [10] = molecular target: Neu5Ac(a2-3)Gal(b1-3)GlcNAc(b1-2)Man(a1-3)[Neu5Ac(a2-3)Gal(b1-3)GlcNAc(b1-2)Man(a1-6)]Man(b1-4)GlcNAc(b1-4)GlcNAc
# How it was run: as §1
# [11] = molecular target: Neu5Ac(a2-3)Gal(b1-3)GlcNAc(b1-2)[Neu5Ac(a2-3)Gal(b1-3)GlcNAc(b1-4)]Man(a1-6)[Neu5Ac(a2-3)Gal(b1-3)GlcNAc(b1-2)Man(a1-3)]Man(b1-4)GlcNAc(b1-4)GlcNAc
# How it was run: as §1
# [12] = molecular target: Neu5Ac(a2-3)Gal(b1-3)GlcNAc(b1-3)Gal(b1-3)GlcNAc
# How it was run: as §1
# [13] = molecular target: Neu5Ac(a2-3)Gal(b1-3)GlcNAc(b1-3)Gal(b1-4)GlcNAc
# How it was run: as §1
# [14] = molecular target: Neu5Ac(a2-3)Gal(b1-3)GlcNAc(b1-3)GalNAc
# How it was run: as §1
# [15] = molecular target: Neu5Ac(a2-3)Gal(b1-3)GlcNAc(b1-6)GalNAc
# How it was run: as §1
# [16] = molecular target: Neu5Ac(a2-3)Gal(b1-3)GlcNAc6S
# How it was run: as §1
# [17] = molecular target: Neu5Ac(a2-3)Gal(b1-3)[Fuc(a1-4)]GlcNAc
# How it was run: as §1
# [18] = molecular target: Neu5Ac(a2-3)Gal(b1-3)[Fuc(a1-4)]GlcNAc(b1-3)Gal(b1-3)[Fuc(a1-4)]GlcNAc
# How it was run: as §1
# [19] = molecular target: Neu5Ac(a2-3)Gal(b1-3)[Fuc(a1-4)]GlcNAc(b1-3)Gal(b1-4)[Fuc(a1-3)]GlcNAc
# How it was run: as §1
# [20] = molecular target: Neu5Ac(a2-3)Gal(b1-3)[GlcNAc(b1-6)]GalNAc
# How it was run: as §1
# [21] = molecular target: Neu5Ac(a2-3)Gal(b1-3)[Neu5Ac(a2-6)]GalNAc
# How it was run: as §1
# [22] = molecular target: Neu5Ac(a2-3)Gal(b1-3)[Neu5Ac(a2-6)]GlcNAc(b1-3)[Fuc(a1-3)[Gal(b1-4)]GlcNAc(b1-6)]Gal(b1-4)Glc
# How it was run: as §1
# [23] = molecular target: Neu5Ac(a2-3)Gal(b1-3)]Neu5Ac(a2-3)Gal(b1-4)]GlcNAc
# How it was run: as §1
# Neu5Ac(a2-3)Gal(b1-4)Glc = molecular target: Neu5Ac(a2-3)Gal(b1-4)Glc
# How it was run: as §1
# [24] = molecular target: Neu5Ac(a2-3)Gal(b1-4)GlcNAc
# How it was run: as §1
# [25] = molecular target: Neu5Ac(a2-3)Gal(b1-4)GlcNAc(b1-2)Man
# How it was run: as §1
# [26] = molecular target: Neu5Ac(a2-3)Gal(b1-4)GlcNAc(b1-2)Man(a1-3)[GlcNAc(b1-4)][Neu5Ac(a2-3)Gal(b1-4)GlcNAc(b1-2)Man(a1-6)]Man(b1-4)GlcNAc(b1-4)GlcNAc
# How it was run: as §1
# [27] = molecular target: Neu5Ac(a2-3)Gal(b1-4)GlcNAc(b1-2)Man(a1-3)[Neu5Ac(a2-3)Gal(b1-4)GlcNAc(b1-2)Man(a1-6)]Man(b1-4)GlcNAc(b1-4)GlcNAc
# How it was run: as §1
# [28] = molecular target: Neu5Ac(a2-3)Gal(b1-4)GlcNAc(b1-2)Man(a1-3)[Neu5Ac(a2-3)Gal(b1-4)GlcNAc(b1-2)Man(a1-6)]Man(b1-4)GlcNAc(b1-4)[Fuc(a1-6)]GlcNAc
# How it was run: as §1
# [29] = molecular target: Neu5Ac(a2-3)Gal(b1-4)GlcNAc(b1-2)Man(a1-3)[Neu5Ac(a2-6)Gal(b1-4)GlcNAc(b1-2)Man(a1-6)]Man(b1-4)GlcNAc(b1-4)GlcNAc
# How it was run: as §1
# [30] = molecular target: Neu5Ac(a2-3)Gal(b1-4)GlcNAc(b1-2)[Neu5Ac(a2-3)Gal(b1-4)GlcNAc(b1-4)]Man(a1-3)[GlcNAc(b1-4)][Neu5Ac(a2-3)Gal(b1-4)GlcNAc(b1-2)[Neu5Ac(a2-3)Gal(b1-4)GlcNAc(b1-6)]Man(a1-6)]Man(b1-4)GlcNAc(b1-4)GlcNAc
# How it was run: as §1
# [31] = molecular target: Neu5Ac(a2-3)Gal(b1-4)GlcNAc(b1-2)[Neu5Ac(a2-3)Gal(b1-4)GlcNAc(b1-4)]Man(a1-3)[GlcNAc(b1-4)][Neu5Ac(a2-3)Gal(b1-4)GlcNAc(b1-4)Man(a1-6)]Man(b1-4)GlcNAc(b1-4)GlcNAc
# How it was run: as §1
# [32] = molecular target: Neu5Ac(a2-3)Gal(b1-4)GlcNAc(b1-2)[Neu5Ac(a2-3)Gal(b1-4)GlcNAc(b1-6)]Man(a1-6)[Neu5Ac(a2-3)Gal(b1-4)GlcNAc(b1-2)Man(a1-3)][GlcNAc(b1-4)]Man(b1-4)GlcNAc(b1-4)GlcNAc
# How it was run: as §1
# [33] = molecular target: Neu5Ac(a2-3)Gal(b1-4)GlcNAc(b1-3)Gal
# How it was run: as §1
# [34] = molecular target: Neu5Ac(a2-3)Gal(b1-4)GlcNAc(b1-3)Gal(b1-3)GlcNAc
# How it was run: as §1
# [35] = molecular target: Neu5Ac(a2-3)Gal(b1-4)GlcNAc(b1-3)Gal(b1-4)GlcNAc
# How it was run: as §1
binder,measurement,setting,value
B1,glycan array binding signal (z-score),Neu5Ac(a2-3)Gal,-0.84
same,glycan array binding signal (z-score),[1],-0.299
same,glycan array binding signal (z-score),[2],0.327
same,glycan array binding signal (z-score),[3],1.67
same,glycan array binding signal (z-score),[4],-0.248
same,glycan array binding signal (z-score),[5],-0.283
same,glycan array binding signal (z-score),[6],-1.61
same,glycan array binding signal (z-score),[7],0.62
same,glycan array binding signal (z-score),[8],-0.566
same,glycan array binding signal (z-score),[9],-0.299
same,glycan array binding signal (z-score),[10],-0.067
same,glycan array binding signal (z-score),[11],1.64
same,glycan array binding signal (z-score),[12],-0.164
same,glycan array binding signal (z-score),[13],0.146
same,glycan array binding signal (z-score),[14],-0.232
same,glycan array binding signal (z-score),[15],1.33
same,glycan array binding signal (z-score),[16],-0.13
same,glycan array binding signal (z-score),[17],-0.89
same,glycan array binding signal (z-score),[18],0.799
same,glycan array binding signal (z-score),[19],0.535
same,glycan array binding signal (z-score),[20],1.39
same,glycan array binding signal (z-score),[21],-0.003
same,glycan array binding signal (z-score),[22],-0.597
same,glycan array binding signal (z-score),[23],-0.3
same,glycan array binding signal (z-score),Neu5Ac(a2-3)Gal(b1-4)Glc,1.56
same,glycan array binding signal (z-score),[24],-0.355
same,glycan array binding signal (z-score),[25],0.689
same,glycan array binding signal (z-score),[26],-0.326
same,glycan array binding signal (z-score),[27],-0.646
same,glycan array binding signal (z-score),[28],-0.064
same,glycan array binding signal (z-score),[29],0.211
same,glycan array binding signal (z-score),[30],1.43
same,glycan array binding signal (z-score),[31],-0.572
same,glycan array binding signal (z-score),[32],0.346
same,glycan array binding signal (z-score),[33],0.199
same,glycan array binding signal (z-score),[34],-0.309
same,glycan array binding signal (z-score),[35],-0.231

# Reformatted: entries from further up.
binder | measurement | setting | value
B1 | glycan array binding signal (z-score) | [14] | -0.232
same | glycan array binding signal (z-score) | [15] | 1.33
same | glycan array binding signal (z-score) | [16] | -0.13
